Experimental data published in PubChem BioAssay AID190 (DTP/NCI, 2004).
Several values for one entry are separate records, joined by “and”; a condition that tells them apart may be missing. Equal entries are not always repeated. The source gives many values for each of these; only a part stands here. Inconclusive results and toxic doses are left out. How the source made its calls: active means survival T/C of 150% or more; inactive means T/C below 125% in these data.

System: AKR/Lw mice, AKR lymphoma ip, median survival T/C
Test: NCI In Vivo Anticancer Drug Screen. Data for tumor model Lymphoma AKR (Transplanted) (intraperitoneal) in AKR/Lw mice
Conditions: endpoint: median survival time, higher = longer survival
Method: The antitumor activity of compounds was measured in mice bearing transplantable tumors. Survival or tumor size were measured and the results are expressed as the measurement made in the treated group (T) divided by the measurement made in the vehicle treated control group (C). The tumor model used in this assay is Lymphoma AKR (Transplanted) (intraperitoneal) in AKR/Lw mice

Measured: T/C

O=P1(N(CCCl)CCCl)NCCCO1 (stereo not drawn)
active: dose: 75.0 mg/kg/injection, schedule: Q01DX001 (ip), vehicle: saline with Tween-80 = 375 % of control | dose: 100.0 mg/kg/injection, schedule: Q10DX002 (ip), vehicle: saline 255 % of control | dose: 100.0 mg/kg/injection, schedule: Q12DX002 (ip), vehicle: saline 248 % of control | dose: 100.0 mg/kg/injection, schedule: Q14DX004 (ip), vehicle: saline 290 % of control | dose: 100.0 mg/kg/injection, schedule: Q## X002 (ip), vehicle: saline 248 % of control | dose: 125.0 mg/kg/injection, schedule: Q07DX003 (ip), vehicle: saline 268 % of control | dose: 150.0 mg/kg/injection, schedule: Q01DX001 (ip), vehicle: saline with Tween-80 = 303 % of control | dose: 150.0 mg/kg/injection, schedule: Q12DX002 (ip), vehicle: saline 244 % of control and 294 % of control (2×) | dose: 150.0 mg/kg/injection, schedule: Q## X002 (ip), vehicle: saline 244 % of control | dose: 200.0 mg/kg/injection, schedule: Q12DX002 (ip), vehicle: saline 244 % of control | dose: 200.0 mg/kg/injection, schedule: Q## X002 (ip), vehicle: saline 244 % of control | dose: 300.0 mg/kg/injection, schedule: Q01DX001 (ip), vehicle: saline with Tween-80 = 312 % of control | dose: 300.0 mg/kg/injection, schedule: Q12DX002 (ip), vehicle: saline 293 % of control
